Assay results: paper PMC4171630
No constants are given. Whether binding was seen depends on the method and setting. In cells and extracts the contact can be indirect. Some results given as binding are weak or reduced against the parent protein; the word gives no strength. Where a sequence is shown, tags or fusion partners need not be part of it.

Protein sequences, listed by entry. Tags and fused reporters are not part of them.
UniProt P31749: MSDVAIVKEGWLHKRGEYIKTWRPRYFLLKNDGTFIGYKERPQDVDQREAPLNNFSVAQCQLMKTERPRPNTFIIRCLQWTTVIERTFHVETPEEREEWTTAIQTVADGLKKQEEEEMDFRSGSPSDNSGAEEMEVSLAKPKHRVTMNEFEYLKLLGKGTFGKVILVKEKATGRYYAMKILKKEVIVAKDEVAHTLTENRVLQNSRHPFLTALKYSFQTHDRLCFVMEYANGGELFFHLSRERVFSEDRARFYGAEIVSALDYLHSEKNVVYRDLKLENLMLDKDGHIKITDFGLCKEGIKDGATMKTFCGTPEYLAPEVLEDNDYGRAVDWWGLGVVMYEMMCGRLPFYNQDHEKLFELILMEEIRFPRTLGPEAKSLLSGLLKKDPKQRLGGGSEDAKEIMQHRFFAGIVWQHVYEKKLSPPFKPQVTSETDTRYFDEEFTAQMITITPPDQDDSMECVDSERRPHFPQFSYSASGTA

Target: Myr-AKT (AKT with a myristoylation signal) (UniProt P31749)
Test: co-IP; HEK 293 cells co-transfected with FLAG-cPLA2α and Myr-AKT for 36 h, stimulated with EGF (25 ng/ml, 15 min); 0.5 mg total protein incubated overnight with 2 μg anti-FLAG, anti-AKT or control IgG antibody; eluted proteins immunoblotted with anti-cPLA2α, anti-AKT and anti-pAKT

B1: FLAG-cPLA2α (cytosolic phospholipase A2α) (enzyme, UniProt P47712 1-749)
chain: MSFIDPYQHIIVEHQYSHKFTVVVLRATKVTKGAFGDMLDTPDPYVELFISTTPDSRKRTRHFNNDINPVWNETFEFILDPNQENVLEITLMDANYVMDETLGTATFTVSSMKVGEKKEVPFIFNQVTEMVLEMSLEVCSCPDLRFSMALCDQEKTFRQQRKEHIRESMKKLLGPKNSEGLHSARDVPVVAILGSGGGFRAMVGFSGVMKALYESGILDCATYVAGLSGSTWYMSTLYSHPDFPEKGPEEINEELMKNVSHNPLLLLTPQKVKRYVESLWKKKSSGQPVTFTDIFGMLIGETLIHNRMNTTLSSLKEKVNTAQCPLPLFTCLHVKPDVSELMFADWVEFSPYEIGMAKYGTFMAPDLFGSKFFMGTVVKKYEENPLHFLMGVWGSAFSILFNRVLGVSGSQSRGSTMEEELENITTKHIVSNDSSDSDDESHEPKGTENEDAGSDYQSDNQASWIHRMIMALVSDSALFNTREGRAGKVHNFMLGLNLNTSYPLSPLSDFATQDSFDDDELDAAVADPDEFERIYEPLDVKSKKIHVVDSGLTFNLPYPLILRPQRGVDLIISFDFSARPSDSSPPFKELLLAEKWAKMNKLPFPKIDPYVFDREGLKECYVFKPKNPDMEKDCPTIIHFVLANINFRKYRAPGVPRETEEEKEIADFDIFDDPESPFSTFNFQYPNQAFKRLHDLMHFNTLNNIDVIKEAMVESIEYRRQNPSRCSVSLSNVEARRFFNKEFLSKPKA
Q: How did the binding turn out when B1 was run?
A: binds
